Laboratory results: PubChem BioAssay AID652259 (Drosophila RNAi Screening Center, 2013)

Test: 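Knock-downs that push a Wingless-driven reporter up or down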 (primary screen)
Cell system: Drosophila clone 8 imaginal disc epithelial cells
Knock-down reagent: long dsRNA against Drosophila genes
Conditions: pathway stimulated by co-transfected Wingless expression plasmid
Read-out: 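Dual luciferase reads per well after Wingless plasmid stimulation: reporter firefly light and Renilla control light; activity is firefly divided by Renilla, a ratio not deposited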
Direction: firefly reporter light: higher = more Wg reporter light, before normalisation; Renilla control light: higher = more transfected or surviving cells
Call rule: 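a knock-down is a candidate when at least two out of four statistical tests show it departing from its plate mean; one test alone signals a weak candidate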
Calls: active = candidate regulator (raises or lowers reporter); inactive = not a candidate
In all, the deposit lists about 22,000 reagents; this is an unselected part of those with a known target gene and a result. In the full data, 233 (1.1%) were called active. 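Light values are raw, unnormalised plate reads; the ratio scores behind the reporter calls were not deposited.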 Reagent sequences are not shown. Not given: the amount of reagent, the time to read-out, the dose of the treatment.

CG10214 [DRSC14213] gave firefly reporter light, replicate 1 = 3709; firefly reporter light, replicate 2 = 6912; Renilla control light, replicate 1 = 1655; Renilla control light, replicate 2 = 2000; inactive.
AnxB9 [DRSC14111] showed firefly reporter light, replicate 1 = 1584; firefly reporter light, replicate 2 = 5668; Renilla control light, replicate 1 = 1045; Renilla control light, replicate 2 = 1740; inactive.
With knock-down of chif [DRSC03508], the screen gave firefly reporter light, replicate 1 = 8656; Renilla control light, replicate 1 = 2522; inactive.
Knock-down of CG1324 [DRSC20496] gave: firefly reporter light, replicate 1 = 1907; firefly reporter light, replicate 2 = 4220; Renilla control light, replicate 1 = 963; Renilla control light, replicate 2 = 2168; inactive.
After knock-down of me31B [DRSC03569], the screen gave firefly reporter light, replicate 1 = 13836; Renilla control light, replicate 1 = 1936; inactive.
For CG8188 [DRSC20090], the entry reads firefly reporter light, replicate 1 = 17096; firefly reporter light, replicate 2 = 5.17e5; Renilla control light, replicate 1 = 9146; Renilla control light, replicate 2 = 3.14e5; inactive.
ppk29 [DRSC04205] showed firefly reporter light, replicate 1 = 3254; firefly reporter light, replicate 2 = 9693; Renilla control light, replicate 1 = 595; Renilla control light, replicate 2 = 3303; inactive.
With knock-down of Rab39 [DRSC17827], the screen gave reporter change call, replicate 1 = Wg reporter activity lowered; firefly reporter light, replicate 1 = 11057; Renilla control light, replicate 1 = 11389; active.
Knock-down of upd2 [DRSC19969] came out at: firefly reporter light, replicate 1 = 24768; firefly reporter light, replicate 2 = 8.24e5; Renilla control light, replicate 1 = 12947; Renilla control light, replicate 2 = 3.99e5; inactive.
Trs33 [DRSC15990] gave firefly reporter light, replicate 1 = 17882; Renilla control light, replicate 1 = 3544; inactive.
CG14408 [DRSC19595] scored firefly reporter light, replicate 1 = 2550; firefly reporter light, replicate 2 = 6288; Renilla control light, replicate 1 = 1069; Renilla control light, replicate 2 = 1984; inactive.
Depletion of CG31639 [DRSC00910] came out at: firefly reporter light, replicate 1 = 14435; Renilla control light, replicate 1 = 9365; inactive.
After knock-down of rdgBbeta [DRSC07672], the record shows firefly reporter light, replicate 1 = 8976; Renilla control light, replicate 1 = 3402; inactive.
TTLL1B [DRSC08594] showed firefly reporter light, replicate 1 = 820; firefly reporter light, replicate 2 = 7945; Renilla control light, replicate 1 = 745; Renilla control light, replicate 2 = 2832; inactive.
For CG17290 [DRSC06662] the deposit lists firefly reporter light, replicate 1 = 7777; Renilla control light, replicate 1 = 2077; inactive.
CG18493 [DRSC15334] scored firefly reporter light, replicate 1 = 12197; Renilla control light, replicate 1 = 2347; inactive.
For CG5928 [DRSC18391], the values are firefly reporter light, replicate 1 = 23392; Renilla control light, replicate 1 = 12731; inactive.
Silencing of CG43336 [DRSC15765] resulted in: firefly reporter light, replicate 1 = 19701; Renilla control light, replicate 1 = 5133; inactive.
After knock-down of SCAP [DRSC04869] the results were firefly reporter light, replicate 1 = 2333; firefly reporter light, replicate 2 = 4849; Renilla control light, replicate 1 = 722; Renilla control light, replicate 2 = 2384; inactive.
SCAP [DRSC04907] showed firefly reporter light, replicate 1 = 3245; firefly reporter light, replicate 2 = 8464; Renilla control light, replicate 1 = 1184; Renilla control light, replicate 2 = 3239; inactive.
After knock-down of CG4520 [DRSC15590] the results were firefly reporter light, replicate 1 = 19126; Renilla control light, replicate 1 = 3804; inactive.
CG9899 [DRSC04597] gave firefly reporter light, replicate 1 = 3479; firefly reporter light, replicate 2 = 9155; Renilla control light, replicate 1 = 800; Renilla control light, replicate 2 = 3083; inactive.
ImpE3 [DRSC16716] gave firefly reporter light, replicate 1 = 12121; Renilla control light, replicate 1 = 3480; inactive.
Against CG13405 [DRSC08310] the deposit lists firefly reporter light, replicate 1 = 6566; Renilla control light, replicate 1 = 3030; inactive.
Against CG8838 [DRSC00712], the entry reads firefly reporter light, replicate 1 = 12632; Renilla control light, replicate 1 = 4608; inactive.

2 entries from above, limited to “Renilla control light, replicate 1”.
CG13405 [DRSC08310]	3030
CG8838 [DRSC00712]	4608
